## Results of single-concentration screens

By UniProt entry, the sequences of proteins in these tests, tags left out. Residues count along the entry.
UniProt I6X8D2, whole entry: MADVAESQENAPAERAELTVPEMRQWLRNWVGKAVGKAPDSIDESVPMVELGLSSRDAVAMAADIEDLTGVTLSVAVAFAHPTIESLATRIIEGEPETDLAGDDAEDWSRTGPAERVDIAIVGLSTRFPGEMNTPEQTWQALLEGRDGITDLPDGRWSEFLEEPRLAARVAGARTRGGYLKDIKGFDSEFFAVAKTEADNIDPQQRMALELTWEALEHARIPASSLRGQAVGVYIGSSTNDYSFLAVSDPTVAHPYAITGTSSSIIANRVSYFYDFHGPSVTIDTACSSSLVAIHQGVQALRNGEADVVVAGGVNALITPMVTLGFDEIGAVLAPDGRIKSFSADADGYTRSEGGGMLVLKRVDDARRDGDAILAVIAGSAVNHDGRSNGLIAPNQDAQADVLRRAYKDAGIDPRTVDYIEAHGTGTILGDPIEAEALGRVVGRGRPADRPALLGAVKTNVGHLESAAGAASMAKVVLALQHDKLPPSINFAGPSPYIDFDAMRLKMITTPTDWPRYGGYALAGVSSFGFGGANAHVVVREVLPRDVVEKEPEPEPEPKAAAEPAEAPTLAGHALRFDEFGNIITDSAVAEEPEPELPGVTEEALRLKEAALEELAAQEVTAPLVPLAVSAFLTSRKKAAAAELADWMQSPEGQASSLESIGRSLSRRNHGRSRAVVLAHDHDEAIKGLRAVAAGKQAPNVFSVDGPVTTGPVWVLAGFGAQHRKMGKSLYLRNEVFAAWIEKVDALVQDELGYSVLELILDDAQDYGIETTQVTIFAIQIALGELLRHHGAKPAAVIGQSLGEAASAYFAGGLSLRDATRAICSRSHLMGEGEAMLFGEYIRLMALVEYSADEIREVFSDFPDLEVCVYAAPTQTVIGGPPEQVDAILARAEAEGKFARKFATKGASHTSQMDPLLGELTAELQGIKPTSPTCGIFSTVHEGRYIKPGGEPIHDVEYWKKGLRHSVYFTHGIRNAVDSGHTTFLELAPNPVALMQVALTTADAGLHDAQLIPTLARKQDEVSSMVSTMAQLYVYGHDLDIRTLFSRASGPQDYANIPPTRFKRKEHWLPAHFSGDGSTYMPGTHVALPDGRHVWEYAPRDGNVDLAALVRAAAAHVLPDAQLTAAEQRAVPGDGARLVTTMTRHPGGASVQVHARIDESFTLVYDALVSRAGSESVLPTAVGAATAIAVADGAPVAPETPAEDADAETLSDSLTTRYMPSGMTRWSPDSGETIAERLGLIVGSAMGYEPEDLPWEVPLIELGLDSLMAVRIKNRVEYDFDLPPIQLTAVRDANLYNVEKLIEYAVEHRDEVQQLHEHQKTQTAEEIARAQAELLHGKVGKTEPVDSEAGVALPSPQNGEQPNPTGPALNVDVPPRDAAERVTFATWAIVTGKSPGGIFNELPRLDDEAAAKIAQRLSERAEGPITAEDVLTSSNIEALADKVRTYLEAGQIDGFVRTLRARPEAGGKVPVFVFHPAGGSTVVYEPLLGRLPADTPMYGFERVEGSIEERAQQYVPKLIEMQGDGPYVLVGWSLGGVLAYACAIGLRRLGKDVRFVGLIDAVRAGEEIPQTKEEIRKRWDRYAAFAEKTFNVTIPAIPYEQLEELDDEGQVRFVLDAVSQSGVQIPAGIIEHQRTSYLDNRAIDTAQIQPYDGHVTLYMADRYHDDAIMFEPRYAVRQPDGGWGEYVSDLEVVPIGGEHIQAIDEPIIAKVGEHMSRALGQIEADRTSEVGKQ
UniProt A4I591, 1-473: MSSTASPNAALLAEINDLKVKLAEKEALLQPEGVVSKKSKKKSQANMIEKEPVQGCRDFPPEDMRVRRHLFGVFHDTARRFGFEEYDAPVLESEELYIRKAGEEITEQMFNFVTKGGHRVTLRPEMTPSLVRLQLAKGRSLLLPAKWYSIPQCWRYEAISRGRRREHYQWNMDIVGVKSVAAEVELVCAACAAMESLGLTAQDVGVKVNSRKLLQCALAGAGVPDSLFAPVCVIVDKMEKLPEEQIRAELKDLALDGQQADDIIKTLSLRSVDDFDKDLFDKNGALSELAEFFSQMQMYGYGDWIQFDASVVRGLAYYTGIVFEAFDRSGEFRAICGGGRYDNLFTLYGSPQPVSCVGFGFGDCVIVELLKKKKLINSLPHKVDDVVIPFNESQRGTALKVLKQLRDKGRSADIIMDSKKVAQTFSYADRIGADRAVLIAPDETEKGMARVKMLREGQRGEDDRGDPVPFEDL

From ChEMBL document CHEMBL3988442, “University of Dundee, Small-Polar-MMV Screening Library” (2021).

Pks13 thioesterase: 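Enzyme assay of the thioesterase domain of polyketide synthase 13; the read-out is not stated. Target: Polyketide synthase Pks13, Mycobacterium tuberculosis (UniProt I6X8D2). Compounds at 30 µM. Higher reads as stronger inhibition (inferred from which compounds were picked for retests). Of about 67,000 compounds tested this way, about 300 (0.46%) reached 50% or more in at least one test.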
LiHisRS: 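Histidine-tRNA ligase, Leishmania infantum (UniProt A4I591). Enzyme assay of histidyl-tRNA synthetase; the read-out is not stated. Tested at 30 µM. Direction is inferred from retests: higher values go with stronger inhibition. The assay is labelled LdHisRS but filed under L. infantum. Of about 69,000 compounds tested this way, about 410 (0.6%) reached 50% or more in at least one test.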

Values are the deposited “Percent Effect”, in %. How 0% and 100% were set is not recorded. Most values in the screen are low, and negative values occur. This is an unselected part of the compounds tested. A dash means the value is not listed here; it may have been measured.

structure | Pks13 thioesterase | LiHisRS
CC(C)(O)c1cn(C2CCN(C(=O)CCc3ccncc3)CC2)nn1 | -15.48 | 12.5
CSc1cccc(CN2CCC(CCC(=O)NCCN(C)C)CC2)c1 | -23.19 | 3.419
CC(=O)N1CCC(c2nccnc2Nc2ncc(C)s2)CC1 | 8.506 | 6.186
CCn1ccnc1CN1CCCn2nc(CNC(=O)C3CCC3)cc2C1 | -3.191 | 13.6
Cc1noc(-c2ccnc(Oc3ccc(CN4CCCC4)cc3C)c2)n1 | -22.4 | 9.836
COc1ccc(CN2CC[C@H](NC(C)=O)[C@@H](O)CC2)c(OC)c1 | -30.8 | 5.556
O=C(CCOc1ccc(Cl)cc1)N1CCN(c2cnccn2)CC1 | 13.21 | 15.62
CS(=O)(=O)N1CC[C@H]2O[C@@H](C(=O)NCc3ccco3)CC[C@H]21 | -16.09 | 28.57
CC(C)(C)c1nc(CC(=O)Nc2cnccc2O)cs1 | -16.78 | 15.54
NC(=O)C1CCN(c2nccc(-c3c[nH]nc3C3CCCCC3)n2)CC1 | 26.15 | 28.57
CCN1CCOC(CNCc2c(Cl)nc3ccccn23)C1 (stereo unspecified) | -0.159 | 17.07
Cc1cnn(CC2CCCN2C(=O)c2ccccc2-n2cccn2)c1 (stereo unspecified) | -0.04665 | 5.263
Cc1cnn(CC2CCCN2c2ncnc3c2CCC3)c1 (stereo unspecified) | 17.42 | -4.202
Cc1cnn(CC2CCCN2CC(=O)N(C)Cc2ccc(C)o2)c1 (stereo unspecified) | -1.984 | 11.54
COc1cc2[nH]c(=O)c(CN3CCC[C@@H]3C(N)=O)cc2c(OC)c1OC | 19.68 | 1.587
COc1cc(C(=O)NS(=O)(=O)c2cncc(Br)c2)ccc1C | -24.91 | 8.163
CC(C)c1nc(C2CCCN(C(=O)c3ccc4nncn4c3)C2)no1 (stereo unspecified) | -7.679 | 5.128
CC(C)c1nnc2n1CCN(C(=O)c1cn(-c3ccccc3)nn1)C2 | -1.191 | 7.447
COc1c(C2CCCN2Cc2nccn2C)c(C)nn1C (stereo unspecified) | -20.98 | -1.493
Cc1nc(-c2ccco2)ccc1C(=O)N1CCc2nnc(N)cc2C1 | -25.82 | 2.632
COc1ccc(C(=O)c2cnc(C(C)C)n2C)cc1 | -2.653 | -5.618
Cc1oc(-c2nc(C#N)c(NC(C)C)o2)cc1S(=O)(=O)N1CCCCC1 | -5.734 | 2.632
Cn1cccc1C(=O)N1CCN(Cc2cccnc2)c2ncccc2C1 | -31.81 | 8.333
COc1ccc(SC(C)C(=O)N2CCC(O)CC2)cc1 (stereo unspecified) | -19.86 | 9.211
O=C(Nc1cnn(-c2ccccc2Cl)c1)NC1CCC(O)CC1 (stereo unspecified) | -3.099 | 14.29
CS(=O)(=O)CCN(Cc1cccc(O)c1)C1CCC(O)CC1 (stereo unspecified) | -24.03 | 6.838
Cc1csc(N2CCN(Cc3cccnc3)CC2C)n1 (stereo unspecified) | -0.8561 | 8.434
Cn1c(SCC(N)=O)nnc1-c1csc2c1CCCC2 | -4.307 | 12.09
CS(=O)(=O)c1cccc(C(=O)NCCCN2CCc3ccccc3C2)c1 | - | 15.52
CC(C)(C)OC(=O)CNC(=O)CCc1nnc(-c2ccsc2)o1 | -0.9805 | 19.81
CCn1nccc1C(=O)Nc1nc(C)c(C(C)=O)s1 | 1.229 | 21.51
O=C(C1CCOCC1)N1CCc2ncc(CN3CCOCC3)n2CC1 | - | 14
CC(=O)NCc1cc2n(n1)CCN(Cc1cccc(Cl)c1Cl)C2 | -1.727 | 15.66
CCCC(=O)NCCc1cc(N2CCN(C(C)=O)CC2)nc(C2CC2)n1 | - | 15.62
CS(=O)(=O)NC1(CCc2ccc(NC(=O)C3CC3)nc2)CCCCC1 | -23.18 | -1.429
Cc1nc(CNC2(C(=O)OC(C)(C)C)CCCC2)oc1C | -40.24 | -1.571
OCCN1CCN(Cc2cc(Cl)cc3cccnc23)CC1 | -29.74 | 17.14
CSCCC(=O)NCc1cc2n(n1)CCCN(C1CCCCC1)C2 | -0.7505 | -8.989
CC(C)Oc1cccc(CC(=O)NC2CCN(CC(N)=O)CC2)c1 | -13.88 | 16.44
Cc1nc(COC[C@@H]2CC[C@H]3[C@H](CCN3C(=O)C3CC3)O2)cs1 | 12.77 | 14.71
O=C(C[C@@H]1COC[C@H]2CN(C3CCOCC3)C[C@@H]12)Nc1cnccn1 | 12.63 | 19.75
Cn1ccnc1-c1nc2cc(S(=O)(=O)N3CCCC3)ccc2n1C | 1.962 | 22.89
CN1CCN(C(=O)c2ncn3c2CNS(=O)(=O)c2ccccc2-3)CC1 | -24.65 | 21.37
Cc1ccc(C2CN(Cc3cccc4[nH]ccc34)CCO2)nc1 (stereo unspecified) | -48.67 | 2.069
CC(C)c1cc(CN(C)C(=O)CN2CCNC2=O)no1 | -6.851 | 7.692
CN(C)c1cc(CNc2ccc(S(=O)(=O)C(C)(C)C)nc2)ccn1 | - | -2.778
CCCOC1CCCN(C(=O)c2cnc(-c3csc(C)n3)nc2O)C1 (stereo unspecified) | -14.84 | 9.836
COc1cc(CN(C)C(=O)NCC(=O)NC(C)C)ccc1SC | -15.49 | 15.15
COc1ccc(CNC(=O)NC(C)(CO)C2CC2)c(C(F)(F)F)c1 (stereo unspecified) | -22.05 | 10.62
O=S(=O)(C1CC1)N1CCCn2nnc(Cn3cccc3)c2C1 | 1.72 | 7.692
CC(NCc1cnn(C)c1)c1noc(-c2ccc(Cl)cc2)n1 (stereo unspecified) | 24.51 | 7.563
Cc1ccc(C(O)CNCc2c(C(C)C)nn(C)c2N(C)C)cc1 (stereo unspecified) | -4.333 | 21.92
O=C(NCc1ccccc1F)Nc1ccn(CCN2CCOCC2)n1 | 0.9318 | 16
Cc1ccc(N2C[C@H]3OCC[C@H]3[C@H](C(=O)NCC3CC3)C2)nn1 | -8.831 | 0
C=C(Cl)CN(C)C1CCN(CCc2ccccn2)CC1 | -11.88 | 18.18
Cc1nc(CN2CCN(C(C)c3nc(C4CC4)no3)CC2)oc1C (stereo unspecified) | -20.99 | 14.68
CCCc1noc(C2CC(=O)N(Cc3ccccc3)C2)n1 (stereo unspecified) | -12.07 | 23.38
COc1ccc(CN2CC3(CCNCC3)CCC2=O)c(F)c1F | -5.983 | 8.571
CC(=O)N[C@@H]1CN(C(=O)c2cnc3ccccc3c2)C[C@H]1O | -8.519 | 11.72
CCOC1COC2(CCN(CC3CC3)CC2)C1 (stereo unspecified) | -35.24 | -3.96
CC(C)(O)CCc1cccc(C(=O)NCC2COCCO2)c1 (stereo unspecified) | 1.506 | 25.37
O=C(CCCc1nc2ccccc2[nH]1)N1CCCC(n2cccn2)C1 (stereo unspecified) | -14.53 | 28
Cc1ccc(NC(=O)CNc2cccc3c2CCCC3)c(Br)c1 | -9.649 | 15.09
COCc1ccccc1CNC(=O)CNc1cccc(Cl)c1OC | -11.4 | 7.965
CC(O)CN1CCN(Cc2nnc(C3CC3)o2)CC1 (stereo unspecified) | -39.5 | -7.865

Some entries from above, unchanged:

* CC(C)c1nc(C2CCCN(C(=O)c3ccc4nncn4c3)C2)no1 (stereo unspecified) | Pks13 thioesterase: -7.679%; LiHisRS: 5.128%
* COc1ccc(SC(C)C(=O)N2CCC(O)CC2)cc1 (stereo unspecified) | Pks13 thioesterase: -19.86%; LiHisRS: 9.211%
* Cc1cnn(CC2CCCN2CC(=O)N(C)Cc2ccc(C)o2)c1 (stereo unspecified) | Pks13 thioesterase: -1.984%; LiHisRS: 11.54%
* Cc1cnn(CC2CCCN2C(=O)c2ccccc2-n2cccn2)c1 (stereo unspecified) | Pks13 thioesterase: -0.04665%; LiHisRS: 5.263%